Measured values from article PMC7974513.
These are yes or no findings as the source states them, for the method shown. In cells and extracts the contact can be indirect. Some binding calls cover weakened binding; strength is not graded here.

Amino acid sequences for entries named in this document (tags omitted).
UniProt P18887: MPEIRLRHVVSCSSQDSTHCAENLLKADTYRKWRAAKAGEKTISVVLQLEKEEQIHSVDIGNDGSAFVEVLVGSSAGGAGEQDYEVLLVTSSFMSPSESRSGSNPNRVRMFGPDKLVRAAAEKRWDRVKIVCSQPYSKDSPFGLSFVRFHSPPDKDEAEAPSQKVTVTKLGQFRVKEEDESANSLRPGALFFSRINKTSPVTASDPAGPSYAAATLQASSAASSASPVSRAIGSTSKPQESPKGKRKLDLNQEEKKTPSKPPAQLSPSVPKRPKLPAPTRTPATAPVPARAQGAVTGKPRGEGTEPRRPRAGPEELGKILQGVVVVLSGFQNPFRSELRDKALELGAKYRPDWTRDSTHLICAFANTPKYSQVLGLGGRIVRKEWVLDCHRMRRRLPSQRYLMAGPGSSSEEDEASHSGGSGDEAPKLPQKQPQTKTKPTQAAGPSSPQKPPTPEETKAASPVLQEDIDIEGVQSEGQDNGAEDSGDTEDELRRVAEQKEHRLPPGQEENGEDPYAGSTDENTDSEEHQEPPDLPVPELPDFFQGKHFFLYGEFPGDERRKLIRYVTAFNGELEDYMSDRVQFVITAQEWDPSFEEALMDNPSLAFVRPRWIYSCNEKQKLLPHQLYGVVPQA
UniProt P68400: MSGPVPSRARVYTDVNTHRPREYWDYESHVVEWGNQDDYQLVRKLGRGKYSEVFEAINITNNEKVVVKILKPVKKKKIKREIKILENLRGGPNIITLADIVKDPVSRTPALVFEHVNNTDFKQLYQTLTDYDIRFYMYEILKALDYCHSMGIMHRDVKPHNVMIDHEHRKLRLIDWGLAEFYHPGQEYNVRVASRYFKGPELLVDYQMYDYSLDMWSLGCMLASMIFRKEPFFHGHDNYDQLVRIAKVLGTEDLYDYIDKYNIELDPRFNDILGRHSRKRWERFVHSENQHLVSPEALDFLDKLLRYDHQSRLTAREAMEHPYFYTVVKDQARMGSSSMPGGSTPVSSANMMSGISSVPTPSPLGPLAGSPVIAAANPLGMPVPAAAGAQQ

Biological target: X-ray repair cross complementing group1 (XRCC1) (human (endogenous in BGC823/DDP)) (UniProt P18887)
Test: co-IP; BGC823/DDP cells pretreated with DDP or DDP+JP3 for 24 h; 500 μg of cell extract with anti-XRCC1 antibody or IgG (2 μg), Protein A/G agarose beads overnight at 4 °C; western blot for CK2α

- binding: binds
Substance: casein kinase 2 alpha (CK2α) (from UniProt P68400 1-391) (enzyme)
